Common to all, as to assay: log2 fold change, soluble protein after heating vs DMSO (PISA); higher = thermal stabilisation; K562 cells, 10 uM, 30 min; active = over 0.2 and 3.5 SD of the protein, either way, in both replicates (recomputed)
Compound in one test: O=C(CCCCCCNC(=O)c1cnc(N(c2ccccc2)c2ccccc2Cl)nc1)NO [citarinostat]
Put shortly:
(§1)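 Soluble protein was quantified by TMTpro 16plex LC-MS/MS after channel sums were equalised. It was obtained as the supernatant after 21,000xg for 90 min from pooled aliquots of K562 cells (2×10^6 cells/mL, 10 μM compound, 30 min) heated for 3 min across 48°C-58°C and extracted in PBS with 0.5% NP-40 at 4°C. Thermal stability values are relative to control samples and come from duplicates. They are given as log2 fold changes.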

Sequences of proteins named here, by UniProt entry; tags and fusion partners are left off. A change or cut given only in a name is not applied to a line headed by its entry.
UniProt Q7Z4G1, whole entry, looked up: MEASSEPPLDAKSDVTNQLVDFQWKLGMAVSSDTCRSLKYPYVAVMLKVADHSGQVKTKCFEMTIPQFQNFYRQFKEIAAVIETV
UniProt P29373: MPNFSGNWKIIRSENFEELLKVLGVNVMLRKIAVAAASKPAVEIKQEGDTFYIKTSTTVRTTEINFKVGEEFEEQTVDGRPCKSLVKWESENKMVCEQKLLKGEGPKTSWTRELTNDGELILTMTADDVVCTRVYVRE
UniProt Q9UI42: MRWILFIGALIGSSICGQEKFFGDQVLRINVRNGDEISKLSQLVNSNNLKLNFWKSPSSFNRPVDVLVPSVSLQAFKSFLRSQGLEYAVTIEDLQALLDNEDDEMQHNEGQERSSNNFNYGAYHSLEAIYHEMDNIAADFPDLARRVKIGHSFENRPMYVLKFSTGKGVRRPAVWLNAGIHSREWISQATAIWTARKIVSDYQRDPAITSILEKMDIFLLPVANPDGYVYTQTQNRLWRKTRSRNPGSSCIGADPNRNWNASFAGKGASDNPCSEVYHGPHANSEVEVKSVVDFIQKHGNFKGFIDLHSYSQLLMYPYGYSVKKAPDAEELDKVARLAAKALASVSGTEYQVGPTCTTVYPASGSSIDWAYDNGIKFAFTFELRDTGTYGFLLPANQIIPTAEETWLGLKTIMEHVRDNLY
UniProt Q8N6G5: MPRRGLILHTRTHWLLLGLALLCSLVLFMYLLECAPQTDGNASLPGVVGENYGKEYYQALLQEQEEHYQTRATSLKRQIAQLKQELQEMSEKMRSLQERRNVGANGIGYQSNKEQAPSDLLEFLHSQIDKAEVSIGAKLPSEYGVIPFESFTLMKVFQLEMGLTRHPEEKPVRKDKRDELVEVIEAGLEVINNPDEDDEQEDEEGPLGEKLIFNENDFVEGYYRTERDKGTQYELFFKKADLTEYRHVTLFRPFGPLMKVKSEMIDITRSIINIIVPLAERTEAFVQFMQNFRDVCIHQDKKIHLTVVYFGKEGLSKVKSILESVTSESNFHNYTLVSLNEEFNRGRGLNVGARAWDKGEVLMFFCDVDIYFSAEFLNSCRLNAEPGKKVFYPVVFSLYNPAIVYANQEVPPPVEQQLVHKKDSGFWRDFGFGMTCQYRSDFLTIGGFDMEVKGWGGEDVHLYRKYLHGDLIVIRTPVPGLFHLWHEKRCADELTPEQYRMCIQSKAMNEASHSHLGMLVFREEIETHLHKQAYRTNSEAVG
UniProt P02458, whole entry, looked up: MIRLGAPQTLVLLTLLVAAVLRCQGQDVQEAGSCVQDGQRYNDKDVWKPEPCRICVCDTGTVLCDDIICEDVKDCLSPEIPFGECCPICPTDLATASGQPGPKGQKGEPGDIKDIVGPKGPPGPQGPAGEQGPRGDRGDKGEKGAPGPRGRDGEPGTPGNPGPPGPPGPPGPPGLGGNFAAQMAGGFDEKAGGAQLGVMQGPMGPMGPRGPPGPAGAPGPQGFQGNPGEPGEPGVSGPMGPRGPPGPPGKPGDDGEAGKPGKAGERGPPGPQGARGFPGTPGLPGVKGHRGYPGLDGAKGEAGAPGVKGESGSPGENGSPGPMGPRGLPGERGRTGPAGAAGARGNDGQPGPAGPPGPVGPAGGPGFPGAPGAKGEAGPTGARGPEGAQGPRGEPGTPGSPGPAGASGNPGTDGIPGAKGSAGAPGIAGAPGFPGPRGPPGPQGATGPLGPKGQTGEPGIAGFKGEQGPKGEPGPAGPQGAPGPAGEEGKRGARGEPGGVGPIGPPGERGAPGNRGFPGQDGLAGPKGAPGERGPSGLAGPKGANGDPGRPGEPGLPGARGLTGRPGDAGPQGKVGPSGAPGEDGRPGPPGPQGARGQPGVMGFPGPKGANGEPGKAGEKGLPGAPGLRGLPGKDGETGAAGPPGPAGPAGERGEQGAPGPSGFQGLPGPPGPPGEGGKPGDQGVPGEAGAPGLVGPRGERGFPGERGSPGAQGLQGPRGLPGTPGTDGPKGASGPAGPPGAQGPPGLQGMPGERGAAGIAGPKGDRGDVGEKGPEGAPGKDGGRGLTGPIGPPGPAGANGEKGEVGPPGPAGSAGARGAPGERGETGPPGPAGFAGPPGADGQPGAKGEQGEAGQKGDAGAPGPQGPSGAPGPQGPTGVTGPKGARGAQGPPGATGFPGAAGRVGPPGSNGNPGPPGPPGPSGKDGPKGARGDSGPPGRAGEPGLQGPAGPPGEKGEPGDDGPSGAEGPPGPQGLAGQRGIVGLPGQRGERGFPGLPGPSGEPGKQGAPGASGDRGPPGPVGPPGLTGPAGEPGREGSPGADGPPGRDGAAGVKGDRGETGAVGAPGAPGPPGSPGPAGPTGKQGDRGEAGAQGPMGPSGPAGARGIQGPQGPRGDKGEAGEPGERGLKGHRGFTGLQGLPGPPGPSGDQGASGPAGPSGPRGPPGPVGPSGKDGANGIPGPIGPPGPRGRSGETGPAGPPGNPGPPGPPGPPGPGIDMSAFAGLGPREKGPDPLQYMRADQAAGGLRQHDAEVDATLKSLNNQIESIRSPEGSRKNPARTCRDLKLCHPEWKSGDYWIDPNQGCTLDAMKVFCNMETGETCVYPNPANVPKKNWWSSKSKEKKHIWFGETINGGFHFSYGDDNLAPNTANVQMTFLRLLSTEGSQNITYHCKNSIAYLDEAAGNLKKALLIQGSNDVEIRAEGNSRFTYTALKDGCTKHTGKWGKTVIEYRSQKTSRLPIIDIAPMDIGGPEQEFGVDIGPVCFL
UniProt Q96H96: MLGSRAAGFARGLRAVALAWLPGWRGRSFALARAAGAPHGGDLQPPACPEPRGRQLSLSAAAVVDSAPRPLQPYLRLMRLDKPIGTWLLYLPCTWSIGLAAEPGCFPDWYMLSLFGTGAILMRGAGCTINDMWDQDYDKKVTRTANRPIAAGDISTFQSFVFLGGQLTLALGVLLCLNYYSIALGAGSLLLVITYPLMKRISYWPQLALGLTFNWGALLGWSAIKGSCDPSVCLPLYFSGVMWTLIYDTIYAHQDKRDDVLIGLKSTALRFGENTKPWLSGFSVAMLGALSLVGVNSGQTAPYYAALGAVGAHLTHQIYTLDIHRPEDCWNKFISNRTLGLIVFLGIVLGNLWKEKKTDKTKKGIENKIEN
UniProt Q9UBI1, whole entry, looked up: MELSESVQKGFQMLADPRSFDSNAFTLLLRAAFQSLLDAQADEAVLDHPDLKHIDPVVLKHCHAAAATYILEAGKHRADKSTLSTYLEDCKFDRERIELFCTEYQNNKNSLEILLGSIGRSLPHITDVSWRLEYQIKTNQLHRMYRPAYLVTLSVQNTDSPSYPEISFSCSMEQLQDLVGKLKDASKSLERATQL
UniProt Q9UBL6: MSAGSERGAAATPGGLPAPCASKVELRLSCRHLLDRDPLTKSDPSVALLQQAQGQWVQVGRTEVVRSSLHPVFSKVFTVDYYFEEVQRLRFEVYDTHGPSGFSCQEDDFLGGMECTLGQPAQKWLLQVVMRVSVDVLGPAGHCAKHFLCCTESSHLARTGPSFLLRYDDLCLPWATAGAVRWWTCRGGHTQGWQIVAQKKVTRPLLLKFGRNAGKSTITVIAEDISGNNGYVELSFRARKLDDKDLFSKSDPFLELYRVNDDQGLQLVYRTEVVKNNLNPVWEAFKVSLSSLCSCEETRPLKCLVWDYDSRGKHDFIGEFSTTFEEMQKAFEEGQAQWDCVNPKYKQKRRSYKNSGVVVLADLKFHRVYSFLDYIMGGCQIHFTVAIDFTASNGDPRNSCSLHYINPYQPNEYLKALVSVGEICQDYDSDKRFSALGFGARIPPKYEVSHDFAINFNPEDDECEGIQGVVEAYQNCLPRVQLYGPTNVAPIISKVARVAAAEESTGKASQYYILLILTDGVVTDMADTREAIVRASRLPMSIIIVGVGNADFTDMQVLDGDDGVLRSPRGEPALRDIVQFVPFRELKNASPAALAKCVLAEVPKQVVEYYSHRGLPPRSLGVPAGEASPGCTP
UniProt Q16526: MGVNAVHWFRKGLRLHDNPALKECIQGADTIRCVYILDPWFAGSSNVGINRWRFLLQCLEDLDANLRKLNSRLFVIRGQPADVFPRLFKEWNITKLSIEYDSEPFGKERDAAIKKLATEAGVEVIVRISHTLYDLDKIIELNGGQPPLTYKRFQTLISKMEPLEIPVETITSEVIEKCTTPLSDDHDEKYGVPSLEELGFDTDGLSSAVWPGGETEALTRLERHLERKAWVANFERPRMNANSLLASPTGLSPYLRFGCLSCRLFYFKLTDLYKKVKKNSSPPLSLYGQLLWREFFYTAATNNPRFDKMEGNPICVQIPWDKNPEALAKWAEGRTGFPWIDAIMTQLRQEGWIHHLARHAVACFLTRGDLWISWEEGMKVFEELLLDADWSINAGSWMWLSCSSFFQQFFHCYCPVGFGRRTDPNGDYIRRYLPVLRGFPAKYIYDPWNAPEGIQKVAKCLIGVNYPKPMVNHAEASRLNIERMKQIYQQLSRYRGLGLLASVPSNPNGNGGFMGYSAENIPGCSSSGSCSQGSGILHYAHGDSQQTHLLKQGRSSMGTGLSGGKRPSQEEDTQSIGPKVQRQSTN
UniProt Q9UBG3: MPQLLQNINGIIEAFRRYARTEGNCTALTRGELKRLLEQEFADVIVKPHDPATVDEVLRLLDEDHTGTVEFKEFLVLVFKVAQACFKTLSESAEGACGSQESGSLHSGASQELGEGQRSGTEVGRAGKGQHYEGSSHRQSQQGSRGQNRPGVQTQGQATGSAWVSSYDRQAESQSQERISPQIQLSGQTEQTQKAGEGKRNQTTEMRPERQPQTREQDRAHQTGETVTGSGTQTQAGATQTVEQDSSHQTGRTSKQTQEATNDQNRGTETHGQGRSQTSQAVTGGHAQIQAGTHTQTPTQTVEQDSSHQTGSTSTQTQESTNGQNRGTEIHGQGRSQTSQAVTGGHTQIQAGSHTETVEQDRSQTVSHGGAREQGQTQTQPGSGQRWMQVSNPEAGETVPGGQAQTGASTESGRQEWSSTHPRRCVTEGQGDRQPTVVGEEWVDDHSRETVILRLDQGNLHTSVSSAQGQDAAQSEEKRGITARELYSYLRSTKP
UniProt Q96I36: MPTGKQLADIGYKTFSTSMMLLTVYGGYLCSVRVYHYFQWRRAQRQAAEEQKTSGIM
UniProt Q8N668, whole entry, looked up: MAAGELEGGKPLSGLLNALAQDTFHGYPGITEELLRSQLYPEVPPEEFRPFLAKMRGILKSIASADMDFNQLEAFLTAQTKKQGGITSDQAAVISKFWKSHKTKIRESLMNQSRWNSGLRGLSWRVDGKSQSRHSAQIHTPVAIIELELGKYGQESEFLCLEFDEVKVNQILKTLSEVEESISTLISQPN
UniProt Q9HCP0: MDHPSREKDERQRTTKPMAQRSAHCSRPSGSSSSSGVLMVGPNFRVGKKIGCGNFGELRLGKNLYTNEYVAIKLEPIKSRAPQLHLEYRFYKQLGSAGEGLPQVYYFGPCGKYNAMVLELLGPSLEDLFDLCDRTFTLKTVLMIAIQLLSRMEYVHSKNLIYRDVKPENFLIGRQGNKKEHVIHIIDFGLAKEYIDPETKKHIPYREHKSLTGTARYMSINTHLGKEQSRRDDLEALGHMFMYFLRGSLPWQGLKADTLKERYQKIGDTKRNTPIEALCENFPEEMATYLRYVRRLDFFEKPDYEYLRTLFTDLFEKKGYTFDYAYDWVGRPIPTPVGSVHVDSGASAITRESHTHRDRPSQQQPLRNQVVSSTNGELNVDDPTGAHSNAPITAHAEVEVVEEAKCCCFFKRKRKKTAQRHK
UniProt Q86T23: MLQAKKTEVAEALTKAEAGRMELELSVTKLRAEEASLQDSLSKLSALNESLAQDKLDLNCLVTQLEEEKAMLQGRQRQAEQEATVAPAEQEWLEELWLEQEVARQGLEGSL
UniProt P29762, whole entry, looked up: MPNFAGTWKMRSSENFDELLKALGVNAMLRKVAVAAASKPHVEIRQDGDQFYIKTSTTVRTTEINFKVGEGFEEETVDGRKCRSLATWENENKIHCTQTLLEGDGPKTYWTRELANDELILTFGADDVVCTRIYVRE
UniProt P53674: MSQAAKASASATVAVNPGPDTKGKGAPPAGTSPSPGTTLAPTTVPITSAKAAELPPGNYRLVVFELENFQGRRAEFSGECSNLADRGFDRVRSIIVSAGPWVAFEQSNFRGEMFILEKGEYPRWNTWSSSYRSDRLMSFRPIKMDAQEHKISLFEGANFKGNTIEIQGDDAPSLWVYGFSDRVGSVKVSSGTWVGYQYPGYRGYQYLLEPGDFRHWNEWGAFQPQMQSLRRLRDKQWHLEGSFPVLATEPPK
UniProt Q9BWP8: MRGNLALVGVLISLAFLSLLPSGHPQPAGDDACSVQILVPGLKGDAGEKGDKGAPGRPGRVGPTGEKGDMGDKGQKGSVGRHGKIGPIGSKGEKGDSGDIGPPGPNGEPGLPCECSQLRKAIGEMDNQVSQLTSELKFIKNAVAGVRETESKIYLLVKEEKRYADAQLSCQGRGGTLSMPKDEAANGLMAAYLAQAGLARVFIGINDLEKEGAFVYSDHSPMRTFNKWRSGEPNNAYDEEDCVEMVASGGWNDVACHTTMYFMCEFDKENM
UniProt O75575: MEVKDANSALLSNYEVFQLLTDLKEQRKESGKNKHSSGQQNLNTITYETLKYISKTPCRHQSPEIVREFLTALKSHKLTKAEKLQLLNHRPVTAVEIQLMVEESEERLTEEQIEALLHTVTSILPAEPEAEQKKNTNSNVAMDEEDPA

Compound in test [1]: c1cc(OCCN2CCCCC2)cc(-c2n[nH]c3ccc(-c4nnc[nH]4)cc23)c1
In a few lines: as §1

Compound in another test: O=C(CCCCCCC(=O)Nc1ccccc1)NO [vorinostat]
Put shortly:
as §1

Compound in test [2]: O=C1NC(=O)C(c2cnc3ccccn23)=C1c1cn2c3c(cc(F)cc13)CN(C(=O)N1CCCCC1)CC2
In a few lines:
as §1

Compound in test [3]: NCC(=O)Nc1ccc(-n2nc(C(F)(F)F)cc2-c2ccc3c(ccc4ccccc43)c2)cc1
In a few lines: as §1

Compound in test [4]: NC1(c2ccc(-c3nc4ccn5c(=O)[nH]nc5c4cc3-c3ccccc3)cc2)CCC1
In a few lines: as §1

Compound in the next test: O=C(O)c1ccc2c(c1)nc(Nc1cccc(Cl)c1)c1ccncc12 [silmitasertib]
In a few lines:
as §1

Compound in test [5]: NC(=O)c1cnc(N[C@@H]2CCCC[C@@H]2N)nc1Nc1cccc(-n2nccn2)c1
In a few lines:
as §1

Compound in test [6]: NC(=O)Nc1cc(-c2cccc(F)c2)sc1C(=O)N[C@H]1CCCNC1
Put shortly:
as §1

Compound in the next test: Nc1ccccc1NC(=O)c1ccc(CNC(=O)OCc2cccnc2)cc1 [entinostat]
In a few lines: as §1

This passage reports log2 fold change results from the supplement of paper PMC10849652.

The list shows a part of the results.

Consider CS (UniProt F8VU34), for which the log2 fold change is inactive: -0.298 with citarinostat and inactive: -0.393 in test [1].

For the target COL6A3 (UniProt P12111), the log2 fold change was inactive: 0.21 with vorinostat, inactive: -0.025 with citarinostat, inactive: -0.087 in test [2] and inactive: 0.072 in test [1].

As to COMMD6 isoform 2 (UniProt Q7Z4G1), the log2 fold change was inactive: -0.436 in [3]; inactive: 0.346 with vorinostat; inactive: 0.095 with citarinostat; inactive: -0.1 in test [2]; inactive: 0.045 in test [1].

Turning to CRABP2 (UniProt P29373), the log2 fold change in test [4] was inactive: -0.064; with vorinostat, inactive: -0.224; with silmitasertib, inactive: -0.072; in test [2], inactive: 0.076.

As to CRADD (UniProt P78560), the log2 fold change was inactive: -0.618 in test [5] and inactive: -0.155 in [3].

CPA4 (UniProt Q9UI42): the log2 fold change in test [5] was inactive: 0.335; in test [3], inactive: 0.223; with citarinostat, inactive: -0.656; in [1] it was inactive: 1.61.

CSGALNACT2 (UniProt Q8N6G5): the values for the log2 fold change in test [5] and in test [2] were inactive: -0.174 and inactive: 0.018, respectively.

For the target COL2A1 (UniProt P02458), the log2 fold change is inactive: 0.187 in test [5] and inactive: 0.123 in test [3].

As for CPN1 (UniProt P15169), in [3], the log2 fold change was inactive: -0.241.

As for COL25A1 (UniProt Q9BXS0), the log2 fold change in test [2] was inactive: 0.111.

As for CPLX1 (UniProt O14810), the log2 fold change is inactive: -0.156 in [5]; inactive: 0.287 in test [4]; inactive: -0.144 in test [3]; inactive: -0.13 in the test with vorinostat; inactive: 0.036 with silmitasertib; inactive: -0.164 in test [2].

As to CRTC3 (UniProt Q6UUV7), the log2 fold change in test [6] was active: -0.754; in [4] it was inactive: -0.007; in test [3], inactive: 0.001; in the test with entinostat it was inactive: 0.057; with silmitasertib it was inactive: 0.098; in test [2], inactive: 0.025.

In the case of COQ2 (UniProt Q96H96), the values for the log2 fold change (with citarinostat; in test [2]; in test [1]) were inactive: 0.079, inactive: 1.24 and inactive: -0.043, respectively.

Turning to CRYM (UniProt Q14894), the log2 fold change was inactive: 0.21 with vorinostat and inactive: 0.007 in test [2].

Turning to CSNK1A1 isoform 3 (UniProt P48729), the log2 fold change in test [4] was inactive: -0.204; in the test with silmitasertib it was inactive: 0.

CPSF4 (UniProt O95639): the log2 fold change was inactive: -0.51 in test [5], inactive: 0.155 in [4], inactive: 0.072 with vorinostat and inactive: 0.176 with silmitasertib.

For COMMD3 (UniProt Q9UBI1), the log2 fold change in [5] is inactive: 0.017; in [4], inactive: 0.022; in test [3], inactive: -0.1; with citarinostat, inactive: 0.012; in the test with silmitasertib, inactive: -0.011; in test [1], inactive: -0.223.

Turning to CPNE7 (UniProt Q9UBL6), the log2 fold change in test [5] was inactive: -0.088; in test [4], inactive: -0.111; in test [3], inactive: -0.046; in the test with citarinostat, inactive: 0.008; with silmitasertib, inactive: -0.026; in test [1], inactive: 0.059.

As for CRY1 (UniProt Q16526), the log2 fold change in [3] was inactive: 0.107; with vorinostat it was inactive: 0.012; in test [2] it was inactive: -0.267.

CRNN (UniProt Q9UBG3): the results for the log2 fold change (in test [4]; in the test with silmitasertib) were inactive: 0.008 and inactive: -0.503, respectively.

Turning to CPTP (UniProt Q5TA50), the log2 fold change in test [6] is inactive: 0.132; in test [4] it was inactive: -0.317; with entinostat, inactive: -0.114; in the test with silmitasertib, inactive: 0.169.

As to COX14 (UniProt Q96I36), the log2 fold change is inactive: -0.037 in test [6]; inactive: 0.017 with entinostat; inactive: 0.093 in the test with vorinostat; inactive: 0.184 with citarinostat; inactive: -0.052 in test [2]; inactive: -0.092 in test [1].

On to COX10 (UniProt Q12887), for which the log2 fold change in [5] is inactive: -0.087; in test [4], inactive: -0.065; in test [3], inactive: -0.068; with vorinostat, inactive: 0.141; in the test with citarinostat, inactive: 0.073; with silmitasertib, inactive: -0.022. The figures for the log2 fold change in test [2] and in test [1] were inactive: -0.126 and inactive: -0.068, respectively.

For COMMD1 (UniProt Q8N668), the log2 fold change in test [6] is inactive: -0.043; in test [4], inactive: 0.051; in [3], inactive: -0.069; in the test with entinostat, inactive: 0.008; in the test with vorinostat, inactive: -0.032; with citarinostat, inactive: 0.039. The log2 fold change with silmitasertib was inactive: -0.021; in [2] it was inactive: -0.018; in [1] it was inactive: -0.065.

In the case of CSNK1G1 (UniProt Q9HCP0), the log2 fold change in test [6] was inactive: 0.092; in test [4] it was inactive: -0.09; with entinostat, inactive: 0.103; with citarinostat, inactive: 0.121; with silmitasertib it was inactive: -0.004; in test [2], inactive: -0.207. The log2 fold change in test [1] is inactive: -0.104.

For the target CROCCP2 (UniProt Q86T23), the log2 fold change in the test with citarinostat is inactive: -0.054; in test [1] it was inactive: 0.006.

Consider CRABP1 (UniProt P29762), for which the log2 fold change in test [3] was inactive: 0.225; with vorinostat, inactive: 0.365.

Turning to CRYBB1 (UniProt P53674), the log2 fold change in test [2] was inactive: 0.044.

As to COLEC11 isoform 10 (UniProt Q9BWP8), the log2 fold change is inactive: -0.103 in test [5]; inactive: 0.002 in [4]; inactive: -0.038 in [3]; inactive: -0.021 with silmitasertib; inactive: 0.085 in test [2].

With CRCP (UniProt O75575), the log2 fold change in [6] is inactive: 0.07; in [4], inactive: 0.039; in the test with entinostat, inactive: 0.032; with vorinostat it was inactive: -0.072; with citarinostat, inactive: -0.21; with silmitasertib, inactive: 0.168. Besides, the log2 fold change in test [2] is inactive: 0.193; in test [1], inactive: 0.063.
